Test results as given in patent US9994594B2, “Inhibitors of arginase and their therapeutic applications” (MARS, INCORPORATED, priority 2010, dated 2018).
The structures given here were assigned with low confidence; some may be wrong.

Amino acid sequences for entries named in this document (tags omitted). Residues count along the entry.
UniProt P05089, whole entry: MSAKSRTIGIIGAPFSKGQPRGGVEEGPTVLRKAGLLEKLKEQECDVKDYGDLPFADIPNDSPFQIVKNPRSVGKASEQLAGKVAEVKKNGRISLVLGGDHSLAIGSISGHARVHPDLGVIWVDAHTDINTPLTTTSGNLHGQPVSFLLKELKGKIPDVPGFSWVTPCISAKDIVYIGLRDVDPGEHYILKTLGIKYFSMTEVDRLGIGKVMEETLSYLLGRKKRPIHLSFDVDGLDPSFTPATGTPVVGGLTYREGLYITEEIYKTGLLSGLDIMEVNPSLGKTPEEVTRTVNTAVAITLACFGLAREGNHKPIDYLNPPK
UniProt P78540, 23-354 limits assumed: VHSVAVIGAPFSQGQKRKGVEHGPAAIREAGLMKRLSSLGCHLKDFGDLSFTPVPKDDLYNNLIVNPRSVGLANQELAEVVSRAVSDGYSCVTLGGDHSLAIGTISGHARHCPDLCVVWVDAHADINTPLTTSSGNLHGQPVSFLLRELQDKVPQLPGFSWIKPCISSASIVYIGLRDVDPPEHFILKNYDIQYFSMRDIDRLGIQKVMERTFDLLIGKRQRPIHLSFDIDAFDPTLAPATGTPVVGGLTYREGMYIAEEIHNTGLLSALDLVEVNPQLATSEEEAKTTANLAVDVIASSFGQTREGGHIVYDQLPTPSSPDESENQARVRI

Key:
human arginase I (ARG I) = human arginase I (ARG I) (Homo sapiens, UniProt P05089); test: Inhibition of arginase I, spectrophotometric urea assay at 530 nm; settings: read-out: Potency (ARG I); Formula II compounds, Table 2-A; tested form: dihydrochloride
Procedure: (§1) The assay established the concentration of inhibitor that is required to reduce arginase activity by 50% (IC50).
(§2) Inhibition of arginase I (ARG I) and arginase II (ARG II) by Formula I and Formula II compounds is followed spectrophotometrically at 530 nm. The compound to be tested is dissolved in DMSO at an initial concentration 50-fold greater than its final concentration in the cuvette. 10 μl of the stock solution is diluted in 90 μl of the assay buffer that comprises 0.1M sodium phosphate buffer containing 130 mM NaCl, pH 7.4, to which is added ovalbumin (OVA) at a concentration of 1 mg/ml. Solutions of arginase I and II are prepared in 100 mM sodium phosphate buffer, pH 7.4 containing 1 mg/ml of OVA to give an arginase stock solution at a final concentration of 100 ng/ml.
(§3) To each well of a 96-well microtiter plate is add 40 μl of enzyme, 10 μl of an inventive compound and 10 μl of enzyme substrate (L-arginine+manganese sulfate). For wells that are used as positive controls, only the enzyme and its substrate are added, while wells used as negative controls contain only manganese sulfate.
(§4) After incubating the microtiter plate at 37° C. for 60 minutes, 150 μl of a urea reagent obtained by combining equal proportions (1:1) of reagents A and B is added to each well of the microtiter plate to stop the reaction. […]

arginase II (ARG II) = arginase II (ARG II) (Homo sapiens, UniProt P78540); test: Inhibition of arginase II, spectrophotometric urea assay at 530 nm; settings: read-out: Potency (ARG); Formula II compounds, Table 2-A; tested form: dihydrochloride
Procedure: as §1, §2, §3, §4

NC(CCCCB(O)O)(C(=O)O)C1CCN(Cc2cccc3c2NCC3)CC1 (centres unmarked)
IC50 (human arginase I (ARG I)): 0.1 to 250 nM | IC50 (arginase II (ARG II)): 0.1 to 250 nM
